Consider one substance from patent US10590166B2 (Allegro Pharmaceuticals, LLC, priority 2009, dated 2020).

Where only a bound is given, the exact number is not on record here.

A short description of the data set: general procedure: Fmoc solid-phase peptide synthesis; o-chlorotrityl resin; PyBOP/DIEA. The settings on record: whole synthesis, UV@220 nm, area/area, scale of the general procedure 0.08 mmol.

Take “Cyclo-RG CYSTEIC ACIDysteic Acid fN(CH3)V”: the “final HPLC purity” value was above 99%.
